Results: the supplement of paper PMC10849652
The list shows a part of the results.

Sequences of proteins named here, by UniProt entry; tags and fusion partners are left off. A change or cut given only in a name is not applied to a line headed by its entry.
UniProt Q96D71: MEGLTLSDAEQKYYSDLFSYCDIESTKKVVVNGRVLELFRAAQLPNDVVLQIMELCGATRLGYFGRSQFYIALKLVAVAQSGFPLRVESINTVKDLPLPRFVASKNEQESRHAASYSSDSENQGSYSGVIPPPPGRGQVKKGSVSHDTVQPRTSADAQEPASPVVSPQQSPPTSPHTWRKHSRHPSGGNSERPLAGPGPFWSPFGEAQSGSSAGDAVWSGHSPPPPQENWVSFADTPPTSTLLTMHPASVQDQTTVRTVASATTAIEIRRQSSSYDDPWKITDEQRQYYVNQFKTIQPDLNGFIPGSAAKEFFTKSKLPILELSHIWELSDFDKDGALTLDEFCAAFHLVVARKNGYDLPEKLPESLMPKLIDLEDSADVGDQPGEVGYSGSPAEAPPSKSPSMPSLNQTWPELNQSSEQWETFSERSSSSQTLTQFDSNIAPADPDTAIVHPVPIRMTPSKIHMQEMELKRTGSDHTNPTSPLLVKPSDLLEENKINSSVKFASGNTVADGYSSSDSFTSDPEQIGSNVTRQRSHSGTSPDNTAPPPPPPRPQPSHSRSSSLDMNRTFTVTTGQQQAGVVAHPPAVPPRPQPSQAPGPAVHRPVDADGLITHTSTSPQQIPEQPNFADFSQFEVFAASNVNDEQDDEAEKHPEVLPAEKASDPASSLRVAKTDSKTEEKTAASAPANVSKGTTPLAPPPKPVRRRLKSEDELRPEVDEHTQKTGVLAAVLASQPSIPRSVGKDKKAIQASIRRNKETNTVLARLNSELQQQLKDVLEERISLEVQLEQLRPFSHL
UniProt Q96A37: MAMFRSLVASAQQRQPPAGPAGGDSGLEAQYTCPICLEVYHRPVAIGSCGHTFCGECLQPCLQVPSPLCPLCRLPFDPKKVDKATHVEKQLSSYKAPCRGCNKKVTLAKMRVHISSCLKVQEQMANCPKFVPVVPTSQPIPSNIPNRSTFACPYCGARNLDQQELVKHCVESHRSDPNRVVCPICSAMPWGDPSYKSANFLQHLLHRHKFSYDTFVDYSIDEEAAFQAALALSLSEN
UniProt O43567: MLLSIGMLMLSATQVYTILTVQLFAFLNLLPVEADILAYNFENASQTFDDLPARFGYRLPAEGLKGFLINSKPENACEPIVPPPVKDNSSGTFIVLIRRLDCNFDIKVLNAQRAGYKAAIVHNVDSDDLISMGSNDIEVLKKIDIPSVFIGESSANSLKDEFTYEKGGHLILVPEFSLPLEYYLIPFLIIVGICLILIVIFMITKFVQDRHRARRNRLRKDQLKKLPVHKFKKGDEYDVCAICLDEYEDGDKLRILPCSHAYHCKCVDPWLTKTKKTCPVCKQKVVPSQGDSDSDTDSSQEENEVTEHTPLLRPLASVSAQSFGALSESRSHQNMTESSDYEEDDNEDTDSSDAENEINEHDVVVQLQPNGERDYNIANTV
UniProt P35251: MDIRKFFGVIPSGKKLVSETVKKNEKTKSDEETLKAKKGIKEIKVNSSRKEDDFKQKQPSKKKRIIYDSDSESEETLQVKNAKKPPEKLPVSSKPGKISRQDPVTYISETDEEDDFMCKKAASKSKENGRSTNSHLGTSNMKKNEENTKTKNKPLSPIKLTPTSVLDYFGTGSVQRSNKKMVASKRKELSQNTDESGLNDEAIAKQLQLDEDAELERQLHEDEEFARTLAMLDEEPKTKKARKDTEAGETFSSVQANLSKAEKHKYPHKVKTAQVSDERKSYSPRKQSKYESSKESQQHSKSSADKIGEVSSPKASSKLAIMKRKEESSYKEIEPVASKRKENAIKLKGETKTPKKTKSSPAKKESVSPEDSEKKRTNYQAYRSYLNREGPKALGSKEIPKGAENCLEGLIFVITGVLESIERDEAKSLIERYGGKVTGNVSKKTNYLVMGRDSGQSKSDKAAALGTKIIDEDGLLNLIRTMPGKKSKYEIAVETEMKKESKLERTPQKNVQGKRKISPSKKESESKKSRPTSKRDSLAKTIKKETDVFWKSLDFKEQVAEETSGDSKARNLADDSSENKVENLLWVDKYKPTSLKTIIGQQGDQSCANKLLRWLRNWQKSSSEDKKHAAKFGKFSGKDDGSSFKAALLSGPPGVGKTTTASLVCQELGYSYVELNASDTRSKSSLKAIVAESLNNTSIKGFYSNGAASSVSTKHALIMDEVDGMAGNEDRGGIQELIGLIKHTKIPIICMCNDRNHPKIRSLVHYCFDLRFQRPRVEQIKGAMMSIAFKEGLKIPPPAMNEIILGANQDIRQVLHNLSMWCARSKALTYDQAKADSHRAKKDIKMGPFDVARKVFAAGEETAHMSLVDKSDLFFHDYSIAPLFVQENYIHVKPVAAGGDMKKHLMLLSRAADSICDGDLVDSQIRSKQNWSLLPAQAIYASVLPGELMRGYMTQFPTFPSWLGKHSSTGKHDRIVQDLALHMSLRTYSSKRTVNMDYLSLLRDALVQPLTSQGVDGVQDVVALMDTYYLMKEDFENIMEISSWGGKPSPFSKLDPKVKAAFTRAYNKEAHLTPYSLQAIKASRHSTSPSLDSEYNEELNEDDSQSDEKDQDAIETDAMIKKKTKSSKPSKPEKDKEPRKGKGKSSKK
UniProt Q9BWE0: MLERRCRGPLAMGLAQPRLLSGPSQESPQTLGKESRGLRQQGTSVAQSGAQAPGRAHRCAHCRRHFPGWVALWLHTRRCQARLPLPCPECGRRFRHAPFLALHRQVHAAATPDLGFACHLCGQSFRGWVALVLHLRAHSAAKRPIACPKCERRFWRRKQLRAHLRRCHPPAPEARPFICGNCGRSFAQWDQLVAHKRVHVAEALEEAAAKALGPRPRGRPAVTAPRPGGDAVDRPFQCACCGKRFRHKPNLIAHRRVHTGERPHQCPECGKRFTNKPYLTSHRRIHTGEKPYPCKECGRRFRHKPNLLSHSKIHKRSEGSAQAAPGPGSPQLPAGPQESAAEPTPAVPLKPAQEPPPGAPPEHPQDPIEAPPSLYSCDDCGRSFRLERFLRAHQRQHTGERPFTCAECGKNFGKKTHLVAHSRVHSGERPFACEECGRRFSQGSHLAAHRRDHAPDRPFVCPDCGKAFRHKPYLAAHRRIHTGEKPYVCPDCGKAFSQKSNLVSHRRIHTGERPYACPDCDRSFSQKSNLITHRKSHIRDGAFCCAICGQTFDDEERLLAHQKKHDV
UniProt Q9Y2P8: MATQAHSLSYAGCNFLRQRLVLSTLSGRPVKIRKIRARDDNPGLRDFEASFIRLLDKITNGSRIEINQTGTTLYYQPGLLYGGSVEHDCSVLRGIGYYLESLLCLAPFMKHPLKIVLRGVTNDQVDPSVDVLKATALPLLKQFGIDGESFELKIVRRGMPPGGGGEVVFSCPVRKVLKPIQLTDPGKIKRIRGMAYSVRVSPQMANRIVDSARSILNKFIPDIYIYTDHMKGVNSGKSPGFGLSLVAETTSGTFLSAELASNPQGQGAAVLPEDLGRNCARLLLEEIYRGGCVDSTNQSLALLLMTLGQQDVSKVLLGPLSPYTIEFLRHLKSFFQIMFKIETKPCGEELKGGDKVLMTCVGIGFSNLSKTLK
UniProt Q9HBH5: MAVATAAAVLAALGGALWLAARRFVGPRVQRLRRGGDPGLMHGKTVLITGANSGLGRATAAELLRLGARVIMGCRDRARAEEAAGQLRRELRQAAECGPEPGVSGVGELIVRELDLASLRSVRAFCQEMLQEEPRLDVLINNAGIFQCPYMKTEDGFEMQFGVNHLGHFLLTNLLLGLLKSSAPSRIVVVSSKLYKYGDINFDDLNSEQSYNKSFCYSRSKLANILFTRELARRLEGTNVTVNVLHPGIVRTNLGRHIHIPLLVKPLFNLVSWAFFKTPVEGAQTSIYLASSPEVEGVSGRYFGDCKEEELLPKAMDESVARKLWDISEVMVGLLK
UniProt Q96NA2: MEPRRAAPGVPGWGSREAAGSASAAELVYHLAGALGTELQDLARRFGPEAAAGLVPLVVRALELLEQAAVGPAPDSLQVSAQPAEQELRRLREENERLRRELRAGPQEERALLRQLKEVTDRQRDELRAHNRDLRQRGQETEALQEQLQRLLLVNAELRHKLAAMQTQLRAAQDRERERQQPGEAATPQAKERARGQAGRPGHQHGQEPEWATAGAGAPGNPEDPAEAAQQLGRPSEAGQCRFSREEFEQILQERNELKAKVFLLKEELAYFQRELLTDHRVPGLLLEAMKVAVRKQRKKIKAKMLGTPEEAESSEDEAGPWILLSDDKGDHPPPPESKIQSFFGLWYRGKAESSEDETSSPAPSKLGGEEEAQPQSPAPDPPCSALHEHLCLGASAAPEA
UniProt Q9H0Z9: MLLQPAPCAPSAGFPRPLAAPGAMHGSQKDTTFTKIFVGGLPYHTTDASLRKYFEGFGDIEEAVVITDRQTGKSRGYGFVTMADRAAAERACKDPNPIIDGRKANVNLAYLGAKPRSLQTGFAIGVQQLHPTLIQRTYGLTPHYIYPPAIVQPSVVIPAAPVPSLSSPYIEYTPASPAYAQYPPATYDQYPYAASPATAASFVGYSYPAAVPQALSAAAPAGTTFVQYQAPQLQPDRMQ
UniProt P62877, whole entry, looked up: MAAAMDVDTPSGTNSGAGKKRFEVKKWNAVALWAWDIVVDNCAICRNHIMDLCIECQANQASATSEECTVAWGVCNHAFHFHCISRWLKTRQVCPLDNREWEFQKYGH
UniProt Q9Y580: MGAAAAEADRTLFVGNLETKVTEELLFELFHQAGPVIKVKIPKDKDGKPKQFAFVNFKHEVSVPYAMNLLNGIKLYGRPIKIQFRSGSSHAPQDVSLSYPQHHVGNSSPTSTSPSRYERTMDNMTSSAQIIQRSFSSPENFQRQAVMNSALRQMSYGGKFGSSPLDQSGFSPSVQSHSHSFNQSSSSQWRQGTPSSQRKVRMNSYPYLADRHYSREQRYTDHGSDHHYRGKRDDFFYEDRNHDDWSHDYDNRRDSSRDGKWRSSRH
UniProt Q9UBS8: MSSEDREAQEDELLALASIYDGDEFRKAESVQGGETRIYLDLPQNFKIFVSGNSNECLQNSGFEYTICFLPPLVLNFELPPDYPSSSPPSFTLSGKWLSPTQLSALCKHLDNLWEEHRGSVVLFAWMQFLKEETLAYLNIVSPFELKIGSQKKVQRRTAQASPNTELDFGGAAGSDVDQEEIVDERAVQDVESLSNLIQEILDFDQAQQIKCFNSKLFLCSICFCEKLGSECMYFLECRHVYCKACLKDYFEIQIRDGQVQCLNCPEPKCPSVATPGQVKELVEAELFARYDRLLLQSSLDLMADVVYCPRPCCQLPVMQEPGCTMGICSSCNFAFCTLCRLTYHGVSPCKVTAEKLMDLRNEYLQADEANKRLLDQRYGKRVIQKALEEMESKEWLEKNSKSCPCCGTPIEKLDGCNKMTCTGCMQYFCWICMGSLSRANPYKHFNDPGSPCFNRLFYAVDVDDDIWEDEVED
UniProt O14730: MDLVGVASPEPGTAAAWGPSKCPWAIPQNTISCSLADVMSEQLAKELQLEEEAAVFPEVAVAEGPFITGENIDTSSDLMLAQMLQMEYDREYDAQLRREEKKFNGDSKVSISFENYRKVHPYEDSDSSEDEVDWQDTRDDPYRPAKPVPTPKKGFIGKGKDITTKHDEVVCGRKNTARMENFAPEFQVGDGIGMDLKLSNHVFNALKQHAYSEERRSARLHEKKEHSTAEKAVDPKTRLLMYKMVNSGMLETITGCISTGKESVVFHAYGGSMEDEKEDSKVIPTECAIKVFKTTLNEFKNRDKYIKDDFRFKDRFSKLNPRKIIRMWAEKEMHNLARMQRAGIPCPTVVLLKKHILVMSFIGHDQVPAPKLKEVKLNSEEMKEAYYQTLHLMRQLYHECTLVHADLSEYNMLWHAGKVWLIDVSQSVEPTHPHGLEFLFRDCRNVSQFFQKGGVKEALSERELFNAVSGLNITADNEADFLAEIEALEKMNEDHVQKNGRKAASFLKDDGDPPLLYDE
UniProt Q9BVS4: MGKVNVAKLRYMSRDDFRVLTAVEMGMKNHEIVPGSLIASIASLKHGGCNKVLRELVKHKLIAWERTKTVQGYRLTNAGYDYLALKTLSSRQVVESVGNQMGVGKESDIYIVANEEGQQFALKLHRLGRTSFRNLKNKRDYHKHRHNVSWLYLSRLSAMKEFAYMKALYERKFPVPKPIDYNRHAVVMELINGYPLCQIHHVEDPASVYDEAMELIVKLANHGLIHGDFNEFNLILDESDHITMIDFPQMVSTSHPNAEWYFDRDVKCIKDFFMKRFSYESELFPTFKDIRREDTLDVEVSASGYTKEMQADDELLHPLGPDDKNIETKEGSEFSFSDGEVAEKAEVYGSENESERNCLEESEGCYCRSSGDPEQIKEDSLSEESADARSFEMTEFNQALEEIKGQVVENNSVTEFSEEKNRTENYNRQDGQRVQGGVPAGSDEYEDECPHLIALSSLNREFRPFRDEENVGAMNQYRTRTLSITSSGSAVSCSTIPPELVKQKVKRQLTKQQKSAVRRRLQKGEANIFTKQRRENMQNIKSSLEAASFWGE

Assays:
Test in all cases: log2 fold change, soluble protein after heating vs DMSO (PISA); higher = thermal stabilisation; K562 cells, 10 uM, 30 min; active = over 0.2 and 3.5 SD of the protein, either way, in both replicates (recomputed)
saracatinib = compound: CN1CCN(CCOc2cc(OC3CCOCC3)c3c(Nc4c(Cl)ccc5c4OCO5)ncnc3c2)CC1 [saracatinib]
Method in brief: (§1)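 K562 cells at 2×10^6 cells/mL were treated for 30 min with 10 μM compound, and aliquots were heated for 3 min over 48°C-58°C before pooling. Extraction used PBS with 0.5% NP-40 at 4°C, and soluble protein was the supernatant after 21,000xg for 90 min, measured by TMTpro 16plex LC-MS/MS with channel sums equalised. Thermal stability values, relative to control samples and from duplicates, are log2 fold changes.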

sotrastaurin = compound: CN1CCN(c2nc(C3=C(c4c[nH]c5ccccc45)C(=O)NC3=O)c3ccccc3n2)CC1 [sotrastaurin]
Method in brief: as §1

alvocidib = compound: CN1CC[C@H](c2c(O)cc(O)c3c(=O)cc(-c4ccccc4Cl)oc23)[C@H](O)C1 [alvocidib]
Method in brief: as §1

Tubastatin A = compound: CN1CCc2c(c3ccccc3n2Cc2ccc(C(=O)NO)cc2)C1 [Tubastatin A]
Method in brief: as §1

[1] = compound: CNC(=O)C1=CC=CC=C1NC2=NC(=NC=C2Cl)NC3=C(C=C(C=C3)N4CCOCC4)OC
Method in brief: as §1

defactinib = compound: CNC(=O)c1ccc(Nc2ncc(C(F)(F)F)c(NCc3nccnc3N(C)S(C)(=O)=O)n2)cc1 [defactinib]
Method in brief: as §1

rucaparib = compound: CNCc1ccc(-c2[nH]c3cc(F)cc4c3c2CCNC4=O)cc1 [rucaparib]
Method in brief: as §1

[2] = compound: CNc1nc(-c2ccc3c(N)n[nH]c3c2)cc(N2C[C@@H](C(=O)NC3CCCCC3)CC[C@H]2C)n1
Method in brief: as §1

encorafenib = compound: COC(=O)N[C@@H](C)CNc1nccc(-c2cn(C(C)C)nc2-c2cc(Cl)cc(NS(C)(=O)=O)c2F)n1 [encorafenib]
Method in brief: as §1

[3] = compound: COC(=O)[C@H](CCSC)NC(=O)C1=C(C=C(C=C1)NC[C@H](CS)N)C2=CC=CC=C2
Method in brief: as §1

[4] = compound: COC1=CC=C(C=C1)CN2C=CC3=C2C=C(C=C3)C(=O)NO
Method in brief: as §1

filanesib = compound: CON(C)C(=O)N1N=C(c2cc(F)ccc2F)S[C@@]1(CCCN)c1ccccc1 [filanesib]
Method in brief: as §1

zotarolimus = compound: CO[C@H]1C[C@@H]2CC[C@@H](C)[C@@](O)(O2)C(=O)C(=O)N2CCCC[C@H]2C(=O)O[C@H]([C@H](C)C[C@@H]2CC[C@H](n3cnnn3)[C@H](OC)C2)CC(=O)[C@H](C)/C=C(\C)[C@@H](O)[C@@H](OC)C(=O)[C@H](C)C[C@H](C)/C=C/C=C/C=C/1C [zotarolimus]
Method in brief: as §1

idasanutlin = compound: COc1cc(C(=O)O)ccc1NC(=O)[C@@H]1N[C@@H](CC(C)(C)C)[C@](C#N)(c2ccc(Cl)cc2F)[C@H]1c1cccc(Cl)c1F [idasanutlin]
Method in brief: as §1

[5] = compound: COc1cc2nc(-c3cc(F)ccc3O)nc(N[C@@H]3CNC[C@H]3C(C)(C)O)c2cc1OC
Method in brief: as §1

gefitinib = compound: COc1cc2ncnc(Nc3ccc(F)c(Cl)c3)c2cc1OCCCN1CCOCC1 [gefitinib]
Method in brief: as §1

lapatinib = compound: CS(=O)(=O)CCNCc1ccc(-c2ccc3ncnc(Nc4ccc(OCc5cccc(F)c5)c(Cl)c4)c3c2)o1 [lapatinib]
Method in brief: as §1

pictilisib = compound: CS(=O)(=O)N1CCN(Cc2cc3nc(-c4cccc5[nH]ncc45)nc(N4CCOCC4)c3s2)CC1 [pictilisib]
Method in brief: as §1

alisertib = compound: COc1cc(Nc2ncc3c(n2)-c2ccc(Cl)cc2C(c2c(F)cccc2OC)=NC3)ccc1C(=O)O [alisertib]
Method in brief: as §1

[6] = compound: COc1cccc2cc(-c3nc([C@H]4CC[C@H](C(=O)O)CC4)n4ncnc(N)c34)[nH]c12
Method in brief: as §1

Measured: log2 fold change

REPS1 (UniProt Q96D71)
inactive: saracatinib -0.016 | sotrastaurin -0.329 | alvocidib 0.027 | Tubastatin A -0.108 | [1] -0.004 | defactinib 0.052 | rucaparib 0.173 | [2] 0.098 | encorafenib 0.001 | [3] 0.044 | [4] 0.023 | filanesib 0.263 | zotarolimus 0.093 | idasanutlin 0.2 | [5] 0.117 | gefitinib 0.107 | lapatinib -0.334 | pictilisib 0.102

RELCH isoform 2 (UniProt Q9P260)
inactive: saracatinib -0.097 | sotrastaurin -0.039 | alvocidib -0.043 | Tubastatin A -0.141 | [1] -0.045 | defactinib 0.027 | rucaparib 0.097 | [2] 0.039 | encorafenib -0.075 | [3] -0.196 | filanesib -0.022 | zotarolimus -0.068 | idasanutlin -0.034 | alisertib -0.004 | gefitinib -0.006 | [6] 0.159 | pictilisib 0.033

RNF166 (UniProt Q96A37)
inactive: saracatinib -0.042 | sotrastaurin -0.017 | alvocidib 0.081 | Tubastatin A 0 | [1] -0.005 | defactinib 0.009 | [2] -0.051 | [3] -0.066 | filanesib 0.051 | zotarolimus -0.025 | idasanutlin 0.064 | alisertib -0.007 | [5] 0.051 | [6] -0.007 | lapatinib 0.096 | pictilisib -0.047

RNF13 (UniProt O43567)
inactive: saracatinib -0.143 | sotrastaurin -0.032 | alvocidib 0.05 | Tubastatin A 0.045 | defactinib 0.052 | rucaparib -0.027 | [2] -0.075 | encorafenib 0.18 | [3] -0.055 | [4] -0.093 | filanesib -0.032 | zotarolimus -0.132 | idasanutlin 0.047

RCE1 (UniProt Q9Y256)
inactive: saracatinib 0.19 | sotrastaurin -0.066 | alvocidib -0.254 | Tubastatin A -0.322 | [1] 0.059 | defactinib -0.117 | rucaparib -0.021 | [2] 0.027 | encorafenib 0.024 | [3] 0.054 | filanesib -0.212 | zotarolimus -0.046 | idasanutlin -0.009 | alisertib -0.143 | [5] -0.221 | gefitinib 0.081 | [6] 0.004 | lapatinib -0.045 | pictilisib -0.053

RFC1 (UniProt P35251)
inactive: saracatinib -0.038 | sotrastaurin 0.07 | alvocidib 0.147 | Tubastatin A 0.011 | defactinib 0.082 | [2] 0.096 | [3] 0.043 | filanesib -0.114 | zotarolimus 0.001 | idasanutlin 0.043 | pictilisib -0.102

RCBTB1 (UniProt Q8NDN9)
inactive: saracatinib -0.042 | sotrastaurin 0.015 | alvocidib -0.154 | [1] 0.109 | [2] -0.217 | filanesib -0.147 | zotarolimus -0.087

REPIN1 isoform 4 (UniProt Q9BWE0)
inactive: saracatinib -0.022 | sotrastaurin -0.006 | alvocidib 0.041 | Tubastatin A -0.02 | [1] 0.002 | defactinib -0.003 | rucaparib 0.088 | [2] -0.052 | encorafenib -0.009 | [3] 0.027 | [4] 0.212 | filanesib 0.014 | zotarolimus -0.004 | idasanutlin 0.015 | alisertib 0.002 | [5] -0.019 | gefitinib -0.012 | [6] 0.031 | lapatinib 0.046 | pictilisib -0.009

RCL1 (UniProt Q9Y2P8)
inactive: saracatinib -0.113 | sotrastaurin -0.024 | alvocidib 0.248 | Tubastatin A 0.159 | [1] 0.1 | defactinib 0.319 | rucaparib 0.289 | [2] 0.196 | encorafenib 0.226 | [3] 0.022 | [4] -0.013 | filanesib 0.286 | zotarolimus 0.101 | idasanutlin 0.169 | alisertib -0.025 | [5] 0.045 | gefitinib -0.018 | [6] -0.135 | lapatinib 0.019 | pictilisib -0.024

Reprinted from the listing (2 entries):
RCE1 (UniProt Q9Y256)
inactive: saracatinib 0.19 | sotrastaurin -0.066 | alvocidib -0.254 | Tubastatin A -0.322 | [1] 0.059 | defactinib -0.117 | rucaparib -0.021 | [2] 0.027 | encorafenib 0.024 | [3] 0.054 | filanesib -0.212 | zotarolimus -0.046 | idasanutlin -0.009 | alisertib -0.143 | [5] -0.221 | gefitinib 0.081 | [6] 0.004 | lapatinib -0.045 | pictilisib -0.053

RFC1 (UniProt P35251)
inactive: saracatinib -0.038 | sotrastaurin 0.07 | alvocidib 0.147 | Tubastatin A 0.011 | defactinib 0.082 | [2] 0.096 | [3] 0.043 | filanesib -0.114 | zotarolimus 0.001 | idasanutlin 0.043 | pictilisib -0.102

(further entries)

RDH14 (UniProt Q9HBH5)
inactive: saracatinib 0.009 | sotrastaurin 0.204 | alvocidib -0.096 | Tubastatin A -0.036 | [1] 0.139 | defactinib 0 | rucaparib 0.026 | [2] 0.207 | encorafenib -0.049 | [3] -0.021 | [4] 0.012 | filanesib -0.07 | zotarolimus 0.203 | idasanutlin 0.309 | alisertib -0.138 | [5] 0.057 | gefitinib 0.169 | [6] 0.028 | lapatinib 0.175 | pictilisib 0.282

RILP (UniProt Q96NA2)
inactive: saracatinib 0.024 | sotrastaurin 0.045 | alvocidib -0.035 | Tubastatin A 0.005 | [1] -0.016 | defactinib -0.054 | rucaparib -0.035 | [2] -0.011 | encorafenib 0.01 | [3] -0.043 | [4] 0.021 | filanesib -0.037 | zotarolimus 0.006 | idasanutlin -0.035 | alisertib -0.122 | [5] -0.071 | gefitinib -0.013 | [6] 0.056 | lapatinib 0.084 | pictilisib 0.102

RBM38 (UniProt Q9H0Z9)
inactive: saracatinib -0.018 | sotrastaurin 0.003 | alvocidib -0.063 | Tubastatin A 0.077 | [1] 0.021 | defactinib 0.114 | rucaparib 0.106 | [2] -0.021 | encorafenib -0.069 | [3] -0.197 | [4] -0.01 | filanesib -0.053 | zotarolimus 0.056 | idasanutlin 0.033 | alisertib -0.075 | [5] -0.047 | gefitinib -0.083 | [6] 0.064 | lapatinib 0.044 | pictilisib -0.09

RETSAT (UniProt Q6NUM9)
inactive: saracatinib -0.088 | sotrastaurin 0.054 | Tubastatin A 0.185 | [1] 0.02 | defactinib -0.05 | rucaparib -0.001 | [2] -0.014 | encorafenib 0.012 | [3] -0.075 | [4] 0.051 | filanesib 0.109 | zotarolimus 0.094 | idasanutlin -0.077 | alisertib 0.067 | [5] 0.064 | gefitinib 0.052 | [6] -0.093 | lapatinib 0.192 | pictilisib 0.074

RBX1 (UniProt P62877)
inactive: saracatinib 0.117 | sotrastaurin 0.007 | alvocidib -0.01 | Tubastatin A -0.037 | [1] -0.127 | defactinib -0.068 | rucaparib -0.116 | [2] -0.011 | encorafenib 0.048 | [3] 0.031 | [4] -0.041 | filanesib 0.09 | zotarolimus -0.076 | idasanutlin -0.068 | alisertib 0.086 | [5] 0.093 | gefitinib -0.015 | [6] -0.05 | lapatinib 0.092 | pictilisib 0.066

RBM7 (UniProt Q9Y580)
inactive: saracatinib -0.302 | sotrastaurin 0.003 | alvocidib -0.072 | Tubastatin A 0.17 | [1] 0.128 | defactinib 0.119 | rucaparib 0.187 | [2] 0.061 | encorafenib 0.055 | [3] 0.065 | filanesib 0.175 | zotarolimus 0.082 | alisertib -0.051 | [5] 0.097 | gefitinib 0.023 | [6] 0.219 | lapatinib 0.039 | pictilisib 0.027

RNF14 (UniProt Q9UBS8)
inactive: saracatinib -0.02 | sotrastaurin -0.042 | Tubastatin A -0.014 | [1] 0.007 | defactinib -0.096 | rucaparib -0.015 | [2] -0.043 | encorafenib -0.027 | [3] 0.042 | [4] 0.034 | filanesib -0.093 | zotarolimus 0.018 | idasanutlin 0.043 | alisertib -0.035 | [5] -0.038 | gefitinib 0.003 | [6] -0.048 | lapatinib 0.006 | pictilisib 0.045

RIOK3 (UniProt O14730)
inactive: saracatinib 0.029 | sotrastaurin -0.006 | Tubastatin A 0.012 | [1] -0.029 | defactinib -0.01 | rucaparib -0.132 | [2] -0.039 | encorafenib -0.02 | [3] -0.002 | [4] -0.039 | filanesib -0.049 | zotarolimus -0.019 | idasanutlin 0.052 | alisertib -0.029 | [5] -0.009 | gefitinib 0.007 | [6] 0.01 | lapatinib 0.003 | pictilisib 0.095

RIOK2 (UniProt Q9BVS4)
inactive: saracatinib -0.073 | sotrastaurin 0.033 | Tubastatin A 0.067 | [1] 0.195 | defactinib 0.138 | rucaparib 0.014 | [2] 0.069 | encorafenib 0.05 | [3] -0.009 | [4] -0.039 | filanesib 0.064 | zotarolimus -0.017 | idasanutlin 0.01 | alisertib -0.025 | [5] 0.074 | gefitinib -0.101 | [6] -0.057 | lapatinib 0.08 | pictilisib 0.049
